From the supplement of paper PMC10849652
This is one part of the list.

By UniProt entry, the sequences of proteins in these tests, tags left out. Where a name states a change or a piece, a line headed by the entry shows the natural chain unless it says otherwise.
UniProt P29692: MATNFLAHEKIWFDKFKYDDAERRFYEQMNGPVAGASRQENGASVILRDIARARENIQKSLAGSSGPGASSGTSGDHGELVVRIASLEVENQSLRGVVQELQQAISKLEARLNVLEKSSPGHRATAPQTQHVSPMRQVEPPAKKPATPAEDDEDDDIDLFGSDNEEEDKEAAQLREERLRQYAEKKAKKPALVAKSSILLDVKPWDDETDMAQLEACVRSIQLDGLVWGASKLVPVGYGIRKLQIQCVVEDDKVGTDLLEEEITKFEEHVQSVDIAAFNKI
UniProt Q96FX2: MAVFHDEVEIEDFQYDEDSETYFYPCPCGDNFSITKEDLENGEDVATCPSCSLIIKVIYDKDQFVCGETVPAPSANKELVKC
UniProt Q8TD84: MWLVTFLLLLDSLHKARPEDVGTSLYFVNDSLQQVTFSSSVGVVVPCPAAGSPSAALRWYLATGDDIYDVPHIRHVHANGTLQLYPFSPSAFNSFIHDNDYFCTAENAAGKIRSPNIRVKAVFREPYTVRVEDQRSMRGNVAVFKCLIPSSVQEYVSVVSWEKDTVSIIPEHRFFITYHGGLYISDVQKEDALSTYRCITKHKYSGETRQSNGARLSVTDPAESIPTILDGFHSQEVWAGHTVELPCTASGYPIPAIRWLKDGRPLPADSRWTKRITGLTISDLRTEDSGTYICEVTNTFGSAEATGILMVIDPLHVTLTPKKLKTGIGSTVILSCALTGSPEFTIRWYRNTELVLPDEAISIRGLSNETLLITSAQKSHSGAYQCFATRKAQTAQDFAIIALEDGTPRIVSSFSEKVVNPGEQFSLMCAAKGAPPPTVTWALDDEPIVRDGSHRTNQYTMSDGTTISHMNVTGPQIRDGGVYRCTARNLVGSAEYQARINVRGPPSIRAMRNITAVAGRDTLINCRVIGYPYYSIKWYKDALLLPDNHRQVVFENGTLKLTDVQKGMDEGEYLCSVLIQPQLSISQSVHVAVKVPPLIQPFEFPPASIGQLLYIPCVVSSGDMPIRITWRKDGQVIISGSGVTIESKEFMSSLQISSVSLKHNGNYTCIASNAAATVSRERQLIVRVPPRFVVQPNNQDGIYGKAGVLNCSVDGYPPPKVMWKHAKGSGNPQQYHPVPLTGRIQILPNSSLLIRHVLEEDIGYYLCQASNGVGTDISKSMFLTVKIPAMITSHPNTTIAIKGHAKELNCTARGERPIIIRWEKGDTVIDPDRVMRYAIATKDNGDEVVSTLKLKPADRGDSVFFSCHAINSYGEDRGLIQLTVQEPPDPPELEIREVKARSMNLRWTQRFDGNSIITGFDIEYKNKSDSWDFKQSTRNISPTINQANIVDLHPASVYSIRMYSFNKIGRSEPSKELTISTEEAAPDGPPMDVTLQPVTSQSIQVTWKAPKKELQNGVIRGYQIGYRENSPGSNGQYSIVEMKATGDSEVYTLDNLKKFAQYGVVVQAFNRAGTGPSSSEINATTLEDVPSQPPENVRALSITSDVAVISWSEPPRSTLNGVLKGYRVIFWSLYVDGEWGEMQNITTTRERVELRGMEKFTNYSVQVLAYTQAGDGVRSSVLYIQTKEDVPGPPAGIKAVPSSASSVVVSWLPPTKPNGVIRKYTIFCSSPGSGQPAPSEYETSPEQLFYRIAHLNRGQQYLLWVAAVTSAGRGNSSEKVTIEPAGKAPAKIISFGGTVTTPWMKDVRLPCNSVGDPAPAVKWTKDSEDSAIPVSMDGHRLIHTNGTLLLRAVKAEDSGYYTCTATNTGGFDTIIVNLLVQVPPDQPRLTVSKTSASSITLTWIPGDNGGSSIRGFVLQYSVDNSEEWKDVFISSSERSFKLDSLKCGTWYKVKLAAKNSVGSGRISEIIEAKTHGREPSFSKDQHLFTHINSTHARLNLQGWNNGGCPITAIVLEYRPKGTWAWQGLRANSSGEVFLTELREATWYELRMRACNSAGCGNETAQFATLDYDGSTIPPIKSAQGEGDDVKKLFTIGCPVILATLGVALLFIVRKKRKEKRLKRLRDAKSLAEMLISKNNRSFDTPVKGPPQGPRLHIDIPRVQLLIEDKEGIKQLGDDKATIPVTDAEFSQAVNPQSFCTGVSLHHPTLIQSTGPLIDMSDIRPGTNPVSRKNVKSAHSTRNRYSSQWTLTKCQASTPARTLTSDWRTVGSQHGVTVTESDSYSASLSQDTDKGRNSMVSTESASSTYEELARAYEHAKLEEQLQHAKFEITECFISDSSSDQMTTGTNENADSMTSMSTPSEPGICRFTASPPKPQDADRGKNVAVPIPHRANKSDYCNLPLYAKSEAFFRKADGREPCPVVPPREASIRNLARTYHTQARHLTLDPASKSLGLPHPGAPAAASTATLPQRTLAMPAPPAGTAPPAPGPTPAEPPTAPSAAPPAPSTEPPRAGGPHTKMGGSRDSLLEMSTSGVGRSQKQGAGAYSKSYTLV
UniProt Q9C005, whole entry, looked up: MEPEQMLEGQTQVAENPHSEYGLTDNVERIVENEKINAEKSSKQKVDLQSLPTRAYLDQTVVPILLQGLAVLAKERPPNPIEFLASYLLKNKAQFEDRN
UniProt P51808: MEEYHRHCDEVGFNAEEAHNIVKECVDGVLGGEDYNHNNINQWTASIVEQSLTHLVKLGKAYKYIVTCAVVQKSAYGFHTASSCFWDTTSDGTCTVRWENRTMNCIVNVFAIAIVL
UniProt Q9NRW4: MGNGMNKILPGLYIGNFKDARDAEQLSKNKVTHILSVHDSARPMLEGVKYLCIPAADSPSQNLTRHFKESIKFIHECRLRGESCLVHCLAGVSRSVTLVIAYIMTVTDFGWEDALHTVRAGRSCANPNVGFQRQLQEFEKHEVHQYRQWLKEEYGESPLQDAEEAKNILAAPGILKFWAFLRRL
UniProt Q9NZJ0: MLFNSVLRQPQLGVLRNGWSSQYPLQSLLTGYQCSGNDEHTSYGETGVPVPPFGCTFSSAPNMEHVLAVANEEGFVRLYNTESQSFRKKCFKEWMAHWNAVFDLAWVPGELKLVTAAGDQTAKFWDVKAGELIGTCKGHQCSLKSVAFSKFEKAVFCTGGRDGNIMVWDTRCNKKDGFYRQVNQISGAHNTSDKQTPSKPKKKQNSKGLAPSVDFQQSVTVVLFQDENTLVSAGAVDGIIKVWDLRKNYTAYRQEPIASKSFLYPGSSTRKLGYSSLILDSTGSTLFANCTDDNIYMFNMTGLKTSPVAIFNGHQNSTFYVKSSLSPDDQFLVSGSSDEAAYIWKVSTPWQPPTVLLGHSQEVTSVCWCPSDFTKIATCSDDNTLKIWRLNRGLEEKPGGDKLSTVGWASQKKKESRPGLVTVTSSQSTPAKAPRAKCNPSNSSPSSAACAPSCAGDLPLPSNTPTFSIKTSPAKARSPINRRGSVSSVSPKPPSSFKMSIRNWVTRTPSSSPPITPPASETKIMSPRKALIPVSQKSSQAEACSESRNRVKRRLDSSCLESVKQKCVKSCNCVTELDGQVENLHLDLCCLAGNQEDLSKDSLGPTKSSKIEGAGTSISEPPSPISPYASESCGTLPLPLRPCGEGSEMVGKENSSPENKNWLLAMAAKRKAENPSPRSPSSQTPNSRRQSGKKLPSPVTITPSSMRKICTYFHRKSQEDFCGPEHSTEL
UniProt O14640: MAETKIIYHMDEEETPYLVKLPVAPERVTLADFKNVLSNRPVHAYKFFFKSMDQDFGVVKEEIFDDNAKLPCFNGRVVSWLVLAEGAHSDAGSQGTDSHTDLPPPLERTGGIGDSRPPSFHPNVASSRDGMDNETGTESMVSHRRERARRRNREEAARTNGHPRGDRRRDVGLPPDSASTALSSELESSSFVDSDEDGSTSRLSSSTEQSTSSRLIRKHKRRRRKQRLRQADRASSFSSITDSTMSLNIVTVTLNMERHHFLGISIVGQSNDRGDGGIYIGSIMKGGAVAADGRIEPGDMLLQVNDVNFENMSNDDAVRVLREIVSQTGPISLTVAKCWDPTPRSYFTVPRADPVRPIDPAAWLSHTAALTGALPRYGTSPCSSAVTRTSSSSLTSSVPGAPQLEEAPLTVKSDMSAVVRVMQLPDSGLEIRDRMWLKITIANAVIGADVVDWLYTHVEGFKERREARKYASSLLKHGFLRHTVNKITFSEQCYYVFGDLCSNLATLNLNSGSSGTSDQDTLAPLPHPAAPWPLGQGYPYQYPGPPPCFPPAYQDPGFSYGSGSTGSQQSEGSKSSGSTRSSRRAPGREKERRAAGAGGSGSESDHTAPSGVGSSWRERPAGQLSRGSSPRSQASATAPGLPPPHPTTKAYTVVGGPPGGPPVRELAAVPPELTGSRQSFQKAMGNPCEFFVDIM
UniProt Q6XUX3: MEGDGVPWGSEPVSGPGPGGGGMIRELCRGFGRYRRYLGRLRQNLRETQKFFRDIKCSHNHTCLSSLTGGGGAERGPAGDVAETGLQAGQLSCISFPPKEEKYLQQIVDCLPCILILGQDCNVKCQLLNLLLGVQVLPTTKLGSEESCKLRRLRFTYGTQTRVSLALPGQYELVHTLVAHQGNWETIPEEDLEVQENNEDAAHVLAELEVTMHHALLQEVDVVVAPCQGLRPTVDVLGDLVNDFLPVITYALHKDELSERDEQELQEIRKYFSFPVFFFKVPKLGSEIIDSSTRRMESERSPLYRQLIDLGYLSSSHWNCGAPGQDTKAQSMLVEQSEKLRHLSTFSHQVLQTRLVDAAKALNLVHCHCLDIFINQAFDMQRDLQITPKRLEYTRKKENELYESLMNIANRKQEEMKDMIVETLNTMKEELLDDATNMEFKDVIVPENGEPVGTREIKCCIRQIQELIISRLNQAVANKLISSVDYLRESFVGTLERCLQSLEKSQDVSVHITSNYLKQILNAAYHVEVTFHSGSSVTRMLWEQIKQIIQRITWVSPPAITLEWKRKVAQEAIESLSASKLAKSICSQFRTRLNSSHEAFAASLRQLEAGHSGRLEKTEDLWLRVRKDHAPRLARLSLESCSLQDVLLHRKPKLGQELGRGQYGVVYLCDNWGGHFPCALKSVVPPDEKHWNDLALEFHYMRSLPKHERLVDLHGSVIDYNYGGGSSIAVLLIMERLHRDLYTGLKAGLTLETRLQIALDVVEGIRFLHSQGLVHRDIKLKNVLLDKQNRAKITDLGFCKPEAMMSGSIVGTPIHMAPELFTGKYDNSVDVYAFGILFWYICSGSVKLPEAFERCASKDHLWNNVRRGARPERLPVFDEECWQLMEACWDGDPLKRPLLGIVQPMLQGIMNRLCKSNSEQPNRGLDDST
UniProt Q8WVE0: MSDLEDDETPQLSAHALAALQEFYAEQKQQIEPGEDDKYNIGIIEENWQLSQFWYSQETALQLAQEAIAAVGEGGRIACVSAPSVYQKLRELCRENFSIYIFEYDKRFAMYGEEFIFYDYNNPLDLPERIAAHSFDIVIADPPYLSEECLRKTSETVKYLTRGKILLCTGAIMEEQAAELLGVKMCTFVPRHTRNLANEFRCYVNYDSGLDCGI
UniProt Q86UW9: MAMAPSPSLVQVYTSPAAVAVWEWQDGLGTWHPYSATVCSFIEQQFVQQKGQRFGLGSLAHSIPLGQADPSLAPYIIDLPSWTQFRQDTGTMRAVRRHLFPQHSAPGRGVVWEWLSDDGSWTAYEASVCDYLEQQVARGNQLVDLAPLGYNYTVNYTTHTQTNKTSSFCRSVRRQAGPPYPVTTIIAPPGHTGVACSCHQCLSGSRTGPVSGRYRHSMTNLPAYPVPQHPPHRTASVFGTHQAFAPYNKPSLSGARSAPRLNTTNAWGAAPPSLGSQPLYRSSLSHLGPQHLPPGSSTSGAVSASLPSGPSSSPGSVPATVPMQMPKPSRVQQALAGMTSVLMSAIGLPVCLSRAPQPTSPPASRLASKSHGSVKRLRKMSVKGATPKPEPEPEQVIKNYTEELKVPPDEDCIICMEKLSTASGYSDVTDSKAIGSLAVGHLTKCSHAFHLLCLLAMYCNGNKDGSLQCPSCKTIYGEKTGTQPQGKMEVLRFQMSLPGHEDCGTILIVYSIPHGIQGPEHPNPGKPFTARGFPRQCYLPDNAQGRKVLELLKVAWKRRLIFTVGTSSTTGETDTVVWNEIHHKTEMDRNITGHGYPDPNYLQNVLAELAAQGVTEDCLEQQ
UniProt Q16610: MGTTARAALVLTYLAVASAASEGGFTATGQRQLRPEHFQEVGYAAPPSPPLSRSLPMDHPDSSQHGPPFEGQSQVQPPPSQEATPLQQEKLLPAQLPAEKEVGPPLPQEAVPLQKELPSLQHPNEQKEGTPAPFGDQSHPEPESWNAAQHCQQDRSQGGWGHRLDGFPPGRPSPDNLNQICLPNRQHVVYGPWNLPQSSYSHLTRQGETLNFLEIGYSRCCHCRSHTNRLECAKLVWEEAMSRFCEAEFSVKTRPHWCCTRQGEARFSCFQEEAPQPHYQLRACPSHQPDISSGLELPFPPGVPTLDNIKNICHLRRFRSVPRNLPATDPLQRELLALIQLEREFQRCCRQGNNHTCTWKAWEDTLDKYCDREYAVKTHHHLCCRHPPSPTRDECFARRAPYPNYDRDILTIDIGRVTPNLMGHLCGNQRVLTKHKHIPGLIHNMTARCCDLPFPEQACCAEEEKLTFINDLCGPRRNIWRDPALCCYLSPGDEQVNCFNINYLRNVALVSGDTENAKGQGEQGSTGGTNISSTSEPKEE

What was measured:
Experiment in all cases: log2 fold change, soluble protein after heating vs DMSO (PISA); higher = thermal stabilisation; K562 lysate, 10 uM; active = over 0.2 and 3.5 SD of the protein, either way, in both replicates (recomputed)
vemurafenib = compound: CCCS(=O)(=O)Nc1ccc(F)c(C(=O)c2c[nH]c3ncc(-c4ccc(Cl)cc4)cc23)c1F [vemurafenib]
Summary of the method: (§1)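 To prepare the extract, K562 pellets were dounce-homogenised in PBS pH 7.4 with 1 mM MgCl2, giving crude material at 1 mg/mL protein. This was treated with 10 μM compound for 30 min, then heated in aliquots for 3 min over 48°C-58°C before pooling and addition of NP-40 to 0.5% at 4°C. Centrifugation at 21,000xg for 90 min left soluble protein in the supernatant, which TMTpro 16plex LC-MS/MS quantified with equalised channel sums. Results are log-two fold changes in thermal stability compared with solvent controls, from duplicates.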

[1] = compound: CCCS(=O)(=O)Nc1ccc(F)c(C(=O)c2c[nH]c3ncc(Cl)cc23)c1F
Summary of the method: as §1

[2] = compound: CC[C@@H]1C(=O)N(C)c2cnc(Nc3ccc(C(=O)NC4CCN(C)CC4)cc3OC)nc2N1C1CCCC1
Summary of the method: as §1

volasertib = compound: CC[C@@H]1C(=O)N(C)c2cnc(Nc3ccc(C(=O)N[C@H]4CC[C@H](N5CCN(CC6CC6)CC5)CC4)cc3OC)nc2N1C(C)C [volasertib]
Summary of the method: as §1

[3] = compound: CCn1cc(-c2ccnc3[nH]c(-c4cccc(CN(C)C)c4)cc23)c(-c2ccc(NC(=O)N(C)C)cc2)n1
Summary of the method: as §1

[4] = compound: CN1CCC(CNc2ccc3ncc(-c4cccc(OC(F)(F)F)c4)n3n2)CC1
Summary of the method: as §1

saracatinib = compound: CN1CCN(CCOc2cc(OC3CCOCC3)c3c(Nc4c(Cl)ccc5c4OCO5)ncnc3c2)CC1 [saracatinib]
Summary of the method: as §1

[5] = compound: CCn1c(C(=O)N(C2CC2)C2CC2)cc2c3c(ncn3C)c(Nc3cc(C)n(C)n3)nc21
Summary of the method: as §1

sotrastaurin = compound: CN1CCN(c2nc(C3=C(c4c[nH]c5ccccc45)C(=O)NC3=O)c3ccccc3n2)CC1 [sotrastaurin]
Summary of the method: as §1

barasertib = compound: CCN(CCCOc1ccc2c(Nc3cc(CC(=O)Nc4cccc(F)c4)[nH]n3)ncnc2c1)CCOP(=O)(O)O [barasertib]
Summary of the method: as §1

Target | log2 fold change (vemurafenib) | log2 fold change [1] | log2 fold change [2] | log2 fold change (volasertib) | log2 fold change [3] | log2 fold change [4] | log2 fold change (saracatinib) | log2 fold change [5] | log2 fold change (sotrastaurin) | log2 fold change (barasertib)
DYNC1I1 (UniProt O14576) | inactive: -0.184 | inactive: 0.124 | inactive: 0.15 | inactive: -0.025 | inactive: 0.145 | inactive: -0.035 | inactive: -0.017 | – | – | –
EEF2KMT (UniProt Q96G04) | inactive: -0.1 | – | inactive: -0.002 | – | inactive: 0.07 | inactive: -0.152 | inactive: -0.058 | inactive: 0.028 | inactive: 0.004 | –
EEF1D isoform 3 (UniProt P29692) | – | inactive: 0.126 | – | inactive: 0.302 | – | – | – | – | inactive: -0.233 | inactive: -0.117
DRAM2 (UniProt Q6UX65) | – | inactive: 0.023 | – | inactive: -0.053 | inactive: -0.217 | inactive: 0.168 | – | – | inactive: -0.026 | inactive: 0.098
E4F1 (UniProt Q66K89) | inactive: 0.031 | inactive: 0.064 | – | inactive: -0.046 | inactive: -0.097 | inactive: 0.03 | inactive: 0.023 | inactive: -0.006 | inactive: 0.062 | inactive: -0.239
DUSP12 (UniProt V9GYV5) | – | – | – | – | inactive: 0.04 | inactive: -0.299 | – | – | – | –
DUSP19 (UniProt Q8WTR2) | – | inactive: 0.07 | – | inactive: 0.206 | inactive: -0.556 | inactive: 0.303 | – | inactive: -0.06 | inactive: 0.039 | inactive: 0.068
EFCAB7 (UniProt A8K855) | – | – | – | – | – | – | – | inactive: 0.004 | – | –
DPH3 (UniProt Q96FX2) | inactive: 0.007 | – | inactive: -0.063 | – | inactive: 0.045 | inactive: 0.024 | inactive: 0.016 | – | inactive: -0.125 | inactive: 0.102
DSC2 (UniProt Q02487) | inactive: -0.018 | – | inactive: 0.082 | – | inactive: -0.049 | inactive: 0.067 | inactive: 0.197 | inactive: -0.013 | inactive: 0.28 | inactive: 0.045
DSCAML1 (UniProt Q8TD84) | – | inactive: 0.002 | – | inactive: -0.01 | inactive: 0.819 | inactive: 0.099 | – | inactive: -0.111 | inactive: -0.036 | inactive: 0.542
DPY30 (UniProt Q9C005) | inactive: -0.069 | inactive: -0.022 | inactive: 0.033 | inactive: 0.068 | inactive: 0 | inactive: -0.035 | inactive: 0.005 | inactive: 0.041 | inactive: 0.062 | –
DYRK1A isoform 2 (UniProt Q13627) | – | – | – | – | inactive: 0.085 | inactive: 0.221 | – | inactive: 0.308 | inactive: 0.033 | inactive: 0.006
DYNLT3 (UniProt P51808) | – | inactive: 0.252 | – | inactive: 0.153 | inactive: -0.125 | inactive: -0.013 | – | – | inactive: 0.023 | –
DUSP22 isoform 2 (UniProt Q9NRW4) | inactive: 0.134 | inactive: -0.109 | – | inactive: 0.006 | inactive: -0.125 | inactive: 0.052 | inactive: 0.009 | inactive: -0.033 | – | inactive: -0.016
EID1 (UniProt Q9Y6B2) | – | – | inactive: 0.015 | – | inactive: -0.073 | inactive: 0.002 | inactive: -0.157 | inactive: 0.001 | – | –
DTL (UniProt Q9NZJ0) | inactive: -0.007 | – | – | – | inactive: 0.065 | inactive: -0.034 | inactive: -0.1 | inactive: 0.02 | inactive: -0.03 | inactive: 0.044
DVL1 (UniProt O14640) | inactive: 0.109 | – | inactive: -0.009 | – | – | – | – | – | – | –
DPY19L3 (UniProt Q6ZPD9) | inactive: 0.258 | inactive: 0.05 | inactive: 0.043 | inactive: -0.007 | – | – | – | – | inactive: 0.051 | inactive: 0.071
EFCAB2 isoform 2 (UniProt Q5VUJ9) | – | – | inactive: -0.041 | – | inactive: 0.017 | inactive: 0.056 | – | inactive: 0.035 | inactive: -0.055 | –

Target | log2 fold change (vemurafenib) | log2 fold change [1] | log2 fold change [2] | log2 fold change (volasertib) | log2 fold change [3] | log2 fold change [4] | log2 fold change (saracatinib) | log2 fold change [5] | log2 fold change (sotrastaurin) | log2 fold change (barasertib)
DSTYK (UniProt Q6XUX3) | – | – | – | – | inactive: 0.19 | inactive: 0.016 | – | inactive: -0.424 | inactive: 0.135 | –
DPY19L4 (UniProt Q7Z388) | inactive: 0.038 | – | inactive: 0.334 | – | inactive: 0.037 | inactive: -0.02 | inactive: -0.029 | inactive: -0.098 | inactive: -0.056 | inactive: 0.152
DSG3 (UniProt P32926) | – | – | – | – | inactive: -0.086 | inactive: -0.19 | – | inactive: -0.05 | – | inactive: -0.129
EEPD1 (UniProt Q7L9B9) | – | – | – | – | – | – | – | – | inactive: 0.087 | –
EEF1AKMT1 (UniProt Q8WVE0) | – | inactive: 0.088 | inactive: 0.233 | inactive: -0.021 | – | – | inactive: 0.001 | inactive: -0.013 | inactive: -0.023 | inactive: 0.114
DPM3 isoform 2 (UniProt Q9P2X0) | – | inactive: -0.043 | – | inactive: 0.019 | inactive: 0 | inactive: -0.083 | – | inactive: 0.017 | inactive: -0.02 | inactive: 0.122
DST isoform 3 (UniProt Q03001) | – | – | inactive: 0.052 | – | active: 1.48 | inactive: -0.213 | – | – | – | inactive: 0.041
DPYSL3 isoform 2 (UniProt Q14195) | – | – | inactive: 0.106 | – | – | – | – | – | inactive: -0.115 | –
EDEM2 (UniProt Q9BV94) | inactive: 0.021 | inactive: 0.03 | inactive: 0.061 | inactive: 0.05 | inactive: -0.06 | inactive: 0.013 | inactive: 0.018 | inactive: -0.036 | inactive: -0.016 | –
DTX2 (UniProt Q86UW9) | – | inactive: 0 | – | inactive: 0.055 | inactive: -0.04 | inactive: 0.036 | inactive: -0.178 | – | inactive: -0.004 | inactive: -0.012
DTWD2 (UniProt Q8NBA8) | – | inactive: 0.001 | – | inactive: 0.016 | inactive: -0.108 | inactive: 0.01 | – | inactive: 0.003 | inactive: 0.028 | inactive: 0.008
DUT (UniProt H0YMP1) | – | inactive: -0.338 | – | inactive: 0.03 | – | – | – | – | – | inactive: 0.162
DPF3 isoform 3 (UniProt Q92784) | – | – | – | – | – | – | – | – | – | inactive: 0.005
DUSP14 (UniProt O95147) | inactive: 0.057 | inactive: -0.072 | inactive: -0.01 | inactive: 0.056 | inactive: -0.093 | inactive: 0.098 | inactive: 0.026 | – | – | –
DTX3L (UniProt Q8TDB6) | inactive: 0.117 | – | inactive: 0.004 | – | inactive: 0.116 | inactive: 0.008 | inactive: 0.043 | inactive: 0.057 | inactive: 0.021 | inactive: 0.142
EGLN2 (UniProt Q96KS0) | inactive: 0.327 | – | inactive: -0.18 | – | inactive: -0.376 | inactive: 0.094 | – | inactive: -0.193 | inactive: 0.007 | –
EHHADH (UniProt Q08426) | – | inactive: 0.082 | inactive: 0.117 | inactive: -0.108 | inactive: 0.055 | inactive: -0.037 | inactive: 0.091 | inactive: -0.037 | inactive: -0.044 | inactive: -0.066
DYNC2LI1 (UniProt Q8TCX1) | inactive: 0.075 | – | – | – | inactive: -0.003 | inactive: 0.055 | inactive: -0.037 | inactive: 0.098 | inactive: 0.005 | inactive: 0.039
ECM1 isoform 2 (UniProt Q16610) | – | – | – | – | – | – | – | inactive: -0.016 | – | –

Looked up one by one from the entries so far:
Target | log2 fold change (vemurafenib) | log2 fold change [1] | log2 fold change [2] | log2 fold change (volasertib) | log2 fold change [3] | log2 fold change [4] | log2 fold change (saracatinib) | log2 fold change [5] | log2 fold change (sotrastaurin) | log2 fold change (barasertib)
EEPD1 (UniProt Q7L9B9) | – | – | – | – | – | – | – | – | inactive: 0.087 | –
DUT (UniProt H0YMP1) | – | inactive: -0.338 | – | inactive: 0.03 | – | – | – | – | – | inactive: 0.162
DSTYK (UniProt Q6XUX3) | – | – | – | – | inactive: 0.19 | inactive: 0.016 | – | inactive: -0.424 | inactive: 0.135 | –
